Data taken from PubChem BioAssay AID485353 (National Center for Advancing Translational Sciences (NCATS), 2010).
The campaign covered roughly 330,000 compounds. About 610 (0.18%) were called active. This list was built around the results that the source calls inconclusive (neither active nor inactive); the mix of calls is not that of the screen. The call rests on the fitted dose curve. Potencies beside an inconclusive call are fits to weak or partial responses and may not hold up.

Test: qHTS of Yeast-based Assay for SARS-CoV PLP; further: nearly all actives have a fitted effect of over 55% in size
Settings: S. cerevisiae expressing SARS-CoV PLpro; Potency: growth rescue; series mostly up to 32.9 µM
Potency means the concentration at half of the fitted maximal effect.

| SMILES | Potency |
| --- | --- |
| CCOC(=O)c1c(C)[nH]c(C)c1C(=O)CSc1nc2ccccc2c(=O)n1-c1ccc(C)cc1 | inactive |
| CCN1CC=C(c2c[nH]c3ccccc23)CC1 | inconclusive: 22.4 µM [activator, single point] |
| COc1cc(C(=O)NCC(C)(C)CNC(=O)c2cc(OC)c(OC)c(OC)c2)cc(OC)c1OC | inconclusive: 3.16 µM [activator, single point] |
| Cc1cc(-c2csc(NC(=O)c3ccccc3C(F)(F)F)n2)c(C)n1Cc1ccccc1 | inconclusive: 0.316 µM [activator, full curve, poor fit] |
| N#C/C(=C\c1cc([N+](=O)[O-])c(N2CCCCC2)cc1N1CCCCC1)c1nn(-c2ccccc2)c(N)c1C#N | inconclusive: 2.82 µM [activator, single point] |
| CCOC(=O)C1(Cc2ccc(Cl)cc2)CCN(Cc2cnc(N)nc2)CC1 | inconclusive: 3.98 µM [activator, single point] |
| CC(C)(C)C(=O)N1CCN(c2nc3ccc(Br)cc3s2)CC1 | inconclusive: 10 µM [activator, partial curve] |
| O=S(=O)(Nc1nc2ccccc2nc1Nc1ccc2c(c1)OCO2)c1ccccc1 | inconclusive: 10 µM [activator, partial curve] |
| COc1ccc(C(=O)N2CCC(C(N)=O)CC2)cc1S(=O)(=O)N1CCCC1 | inconclusive: 2.82 µM [activator, partial curve] |
| Cc1nc2ccc(S(=O)(=O)NCC(=O)NCCN3CCCCCC3)cc2s1 | inconclusive: 3.16 µM [activator, single point] |
| CC(C)c1nnc(NC(=O)C2CCCN2S(=O)(=O)c2ccc(Cl)cc2)s1 (stereo unspecified) | inconclusive: 20 µM [activator, single point] |
| O=C(COc1ccc2c(-c3ccccc3)cc(=O)oc2c1)NCc1cccs1 | inconclusive: 20 µM [activator, partial curve] |
| CCOc1ccc(NC(=S)N2CCc3cc(OC)c(OC)cc3C2COc2ccc3c(C)cc(=O)oc3c2)cc1 (stereo unspecified) | inconclusive: 0.282 µM [activator, partial curve, poor fit] |
| CCCCN1CNC(=S)N(Cc2ccccc2)C1 | inconclusive: 20 µM [activator, single point] |
| CCOc1ccc(C2/C(=C(\O)c3ccc4c(c3)OCCO4)C(=O)C(=O)N2CCCN2CCOCC2)cc1 (stereo unspecified) | inconclusive: 20 µM [activator, single point] |
| CCn1c(C)c(C)c2cc(C(=O)NCCCN3CCCC3)ccc21 | inconclusive: 0.398 µM [activator, full curve, poor fit] |
| Cc1nc(NC(=O)CSc2nnc(C3CC3)n2C)sc1C(=O)N(C)C | inconclusive: 2.82 µM [activator, single point] |
| CCCC(=O)NC(c1ccc2c(c1)OCO2)c1cc(Cl)c2cccnc2c1O (stereo unspecified) | active: 2.82 µM |
| CCc1cc(=O)oc2cc(C)cc(OCC(=O)N[C@@H](CSCc3ccccc3)C(=O)O)c12 | inconclusive: 2.82 µM [activator, single point] |
| COc1cnc(-c2ccccn2)nc1Sc1ccc(Cl)cc1 | inconclusive: 5.62 µM [activator, partial curve, poor fit] |
| O=C(Nc1ccc2nc3n(c(=O)c2c1)CCCC3)c1ccccc1F | inactive |
| CCOC(=O)c1ccccc1NC(=O)c1cn(-c2ccc(C)c(C)c2)c(=O)c2ccccc12 | inconclusive: 15.8 µM [activator, partial curve] |

Quoted at random: 5 records from the list.

| SMILES | Potency |
| --- | --- |
| Cc1cc(-c2csc(NC(=O)c3ccccc3C(F)(F)F)n2)c(C)n1Cc1ccccc1 | inconclusive: 0.316 µM [activator, full curve, poor fit] |
| CCOc1ccc(NC(=S)N2CCc3cc(OC)c(OC)cc3C2COc2ccc3c(C)cc(=O)oc3c2)cc1 (stereo unspecified) | inconclusive: 0.282 µM [activator, partial curve, poor fit] |
| O=C(COc1ccc2c(-c3ccccc3)cc(=O)oc2c1)NCc1cccs1 | inconclusive: 20 µM [activator, partial curve] |
| CCOC(=O)c1c(C)[nH]c(C)c1C(=O)CSc1nc2ccccc2c(=O)n1-c1ccc(C)cc1 | inactive |
| COc1cnc(-c2ccccn2)nc1Sc1ccc(Cl)cc1 | inconclusive: 5.62 µM [activator, partial curve, poor fit] |

Further structures

| SMILES | Potency |
| --- | --- |
| COCC(=O)N1CCC(Oc2ccc(C(=O)NCc3cc(C)no3)cc2)CC1 | inconclusive: 1.78 µM [activator, full curve, poor fit] |
| CSc1ccccc1C(=O)C1CCCN(C(=O)c2ccc(N3CCOCC3)cc2)C1 (stereo unspecified) | inactive |
| O=[N+]([O-])c1ccccc1/C=N/Nc1nccnc1Cl | inactive |
| O=C(O)c1ccc(N=NN2CCCCCC2)cc1 | active: 12.6 µM |
| COc1ccc(NC(=O)CN2C(=O)COc3ccc(S(=O)(=O)N4CCOCC4)cc32)c(OC)c1 | inconclusive: 3.55 µM [activator, single point] |
| Cc1c(OC(C)C(=O)NCc2ccccn2)ccc2c3c(c(=O)oc12)CCCC3 (stereo unspecified) | inconclusive: 14.1 µM [activator, single point] |
| COc1ccc(/C=N/NC(N)=S)cc1OC(=O)c1cccc2ccccc12 | inconclusive: 11.2 µM [activator, partial curve, poor fit] |
| O=C(NNS(=O)(=O)c1ccccc1)c1cccc([N+](=O)[O-])c1 | inconclusive: 2.24 µM [activator, full curve] |
| O=C(C1CC(=O)N(C2CCCC2)C1)N1CCN(c2ccccc2)CC1 (stereo unspecified) | inconclusive: 4.47 µM [activator, single point] |
| O=C(c1ccc2c(c1)OCO2)C1CCCN(Cc2cccc(C(F)(F)F)c2)C1 (stereo unspecified) | inconclusive: 0.708 µM [activator, full curve] |
| CC(=O)OC1(Cc2ccccc2)CN2CCC1c1ccccc12 (stereo unspecified) | inconclusive: 3.16 µM [activator, single point] |
| CS(=O)c1ccccc1-c1nc(-c2ccc(Cl)cc2)no1 (stereo unspecified) | inactive |
| CC(=O)Cc1nsc(NC(=O)c2ccc(-c3ccccc3Cl)o2)n1 | inactive |
| O=C(NC1CCC(O)CC1)c1ccc(Br)o1 (stereo unspecified) | active: 4.47 µM |
| NC(=S)N/N=C/c1ccc(Br)o1 | inconclusive: 10 µM [activator, partial curve] |
| CCOc1ccccc1NC(=O)c1cccc(NC(=O)C2CCCC2)c1 | inconclusive: 2.51 µM [activator, full curve] |
| O=C(CN1CCCc2ccccc21)N/N=C/c1c(O)ccc2ccccc12 | active: 10 µM |
| Cc1[nH]nc2c1C(c1cc(Br)cs1)C(C#N)=C(N)O2 (stereo unspecified) | inactive |
| COc1ccc(C2=NOC3(CC(=O)N(c4ccc(F)cc4)C3=O)C2)c(OC)c1 (stereo unspecified) | inactive |
| Cc1cc(NC(=O)CSc2cn(CCNC(=O)c3ccc(Cl)cc3)c3ccccc23)no1 | inconclusive: 12.6 µM [activator, partial curve] |
| CCC(=O)Nc1ccc2nc(C3CC3)n(Cc3ccccc3)c(=O)c2c1 | inactive |
| COc1ccc(CNC(=O)C2CC(c3ccccc3[N+](=O)[O-])=NO2)cc1 (stereo unspecified) | inconclusive: 15.8 µM [activator, single point] |

| SMILES | Potency |
| --- | --- |
| COc1ccc(C(N)=S)cc1 | inconclusive: 20 µM [activator, single point] |
| C=CCn1c(P(=O)(O)c2ccccc2)nc2ccccc21 | inactive |
| CNC(=S)N/N=C(\C)c1cccc([N+](=O)[O-])c1 | active: 12.6 µM |
| COc1ccc(C(CNC(=O)Nc2ccccc2)N2CCN(C)CC2)cc1 (stereo unspecified) | inconclusive: 3.55 µM [activator, single point] |
| Cc1ccccc1NC(=O)N1CCCC1C(=O)NCc1cccs1 (stereo unspecified) | inconclusive: 8.91 µM [activator, partial curve, poor fit] |
| Cc1c(C#N)c(NC(=O)c2cccc(Cl)c2)n(Cc2ccccc2)c1C | inconclusive: 20 µM [activator, single point] |
| Cc1ccoc1C(=O)NCc1occc1C(=O)O | inconclusive: 20 µM [activator, single point] |
| O=c1[nH]c2ccc(S(=O)(=O)Nc3ccc(Br)cc3)cc2[nH]1 | inconclusive: 11.2 µM [activator, single point] |
| CN1CCC2(CC1)Nc1nc(SCc3ccc(Cl)cc3)nn1C1=C2CN(C)CC1 | inconclusive: 20 µM [activator, single point] |
| Cc1ccc(C2=NC(C)(C)NC2=O)cc1 | inconclusive: 20 µM [activator, single point] |
| S=c1[nH]cnc2scc(-c3ccccc3)c12 | inconclusive: 11.2 µM [activator, single point] |
| CCC(=O)Nc1cccc(NC(=O)CSc2nnnn2C2CCCC2)c1 | inconclusive: 2.82 µM [activator, single point] |
| Cc1c(NC(=O)CSc2ccccn2)c(=O)n(-c2ccccc2)n1C | inconclusive: 12.6 µM [activator, partial curve] |
| Cc1ccc(S(=O)(=O)N2C[C@@H]3CCCC[C@@H]3[C@@H](C)[C@H]2c2cn(Cc3ccccc3)c3ccc(F)cc23)cc1 | inconclusive: 0.891 µM [activator, partial curve] |
| CCCCCCOC(=O)C(C#N)c1nc2ccccc2nc1N1CCN(C)CC1 (stereo unspecified) | inconclusive: 20 µM [activator, single point] |
| COC(=O)Cc1c[nH]c2cccc(OCC(O)CN(Cc3ccccc3)C(C)C)c12 (stereo unspecified) | inconclusive: 20 µM [activator, single point] |
| CCC1Sc2ccc(S(=O)(=O)CCC(=O)Nc3ccc(C(=O)OC)cc3)cc2NC1=O (stereo unspecified) | inconclusive: 7.08 µM [activator, partial curve] |
| COc1ccc(-c2noc(CCC(=O)N3CCC(c4cc(C)ccc4C)CC3)n2)cc1 | inconclusive: 3.55 µM [activator, partial curve] |
| N=c1sccn1CC(=O)Nc1ccc(Cl)c(S(=O)(=O)N2CCOCC2)c1 | inconclusive: 10 µM [activator, single point] |
| CCCCCC(=O)NNC(=S)NC(=O)c1cccc([N+](=O)[O-])c1 | active: 11.2 µM |
| CC(=O)CSc1nnc(-c2ccncc2)n1C | inconclusive: 15.8 µM [activator, single point] |
| COc1ccc(CNC(=S)Nc2ccccc2C)cc1 | inconclusive: 12.6 µM [activator, single point] |
